Article PMC8661717
Results are given in words; binding and its absence hold for the method and conditions named. Some results given as binding are weak or reduced against the parent protein; the word gives no strength.

Experiments:
[1] = biological target: His6-MBP-tagged MERS nsp1, full length (MERS) (UniProt K9N7C7); test: pull-down; both purified
[2] = biological target: His6-MBP-tagged 229E nsp1, full length (human-infective coronavirus strain 229E) (UniProt P0C6X1); test: pull-down; both purified

Truncated human primosome (Pol α 334-1462; B subunit 149-598; PriS 1-420; PriL 1-509) (from UniProt P09884 334-1462; Q14181 149-598; P49642 1-420; P49643 1-509) (complex)
binding [1]: binds
binding [2]: no binding
